Measurements: patent US20250011423A1
Positions count from the first letter of the chain named. Results are given in words; binding and its absence hold for the method and conditions named. Some results given as binding are weak or reduced against the parent protein; the word gives no strength.

Chains of the proteins cited; added tags and fusions are not shown. Lines headed by an entry give the natural chain unless they say otherwise; changes in a name come on top.
UniProt Q86YW5: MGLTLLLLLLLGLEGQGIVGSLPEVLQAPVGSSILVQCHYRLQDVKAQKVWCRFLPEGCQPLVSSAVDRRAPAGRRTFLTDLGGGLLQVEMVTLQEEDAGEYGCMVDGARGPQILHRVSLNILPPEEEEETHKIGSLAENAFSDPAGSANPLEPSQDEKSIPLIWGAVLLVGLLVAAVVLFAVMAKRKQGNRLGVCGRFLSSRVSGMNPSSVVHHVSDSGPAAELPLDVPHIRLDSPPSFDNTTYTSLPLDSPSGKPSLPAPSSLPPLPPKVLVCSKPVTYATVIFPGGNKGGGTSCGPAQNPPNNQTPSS
UniProt Q8K558: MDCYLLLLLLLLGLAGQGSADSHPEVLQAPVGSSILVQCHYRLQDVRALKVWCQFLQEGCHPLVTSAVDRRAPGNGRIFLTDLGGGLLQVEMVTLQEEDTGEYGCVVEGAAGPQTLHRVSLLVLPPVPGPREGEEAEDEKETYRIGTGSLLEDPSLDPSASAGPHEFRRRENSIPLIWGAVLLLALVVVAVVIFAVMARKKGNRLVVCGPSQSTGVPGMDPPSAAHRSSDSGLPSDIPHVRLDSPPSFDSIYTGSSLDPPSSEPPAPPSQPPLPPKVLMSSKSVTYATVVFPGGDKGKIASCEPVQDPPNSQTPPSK

T1: human TREML1 ECD (human) (UniProt Q86YW5)
T1 sequence: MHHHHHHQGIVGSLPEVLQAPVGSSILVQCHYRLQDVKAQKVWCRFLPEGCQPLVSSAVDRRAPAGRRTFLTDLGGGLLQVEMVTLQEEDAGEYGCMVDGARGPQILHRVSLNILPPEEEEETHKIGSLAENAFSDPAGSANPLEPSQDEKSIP

T2: mouse TREML1 ECD (mouse) (UniProt Q8K558)
T2 sequence: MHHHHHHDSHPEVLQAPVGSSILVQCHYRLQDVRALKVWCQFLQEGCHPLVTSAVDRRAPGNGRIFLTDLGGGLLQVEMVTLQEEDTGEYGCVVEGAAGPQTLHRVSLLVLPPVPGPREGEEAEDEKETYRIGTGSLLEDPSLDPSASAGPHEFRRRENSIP

B1: Anti-TREML1 Antibody Clone 23F10 (antibody, V domains shown)
VH: EVQLQQSGPELVRPGASVKVSCKASGYIFTDYVIHWVKQKPGQGLEWFGYINPYTGGPKYSETARGKATLTSDSSSNTAYMVLTSLTSDDSAVYYCTRDFNYYVGAMDFWGQGTSVTVSS
VL: AAVLTQTPLSLPVSLGDQASISCRSTQSLVHSNGNTYVHWYLQKAGQSPKLLIYKVSNRFSGVPDRFSGSGSGTDFTLKISRVEAEDLGVYFCSQSTYVWTFGGGTKLEIE
B2: Anti-TREML1 Antibody Clone 29F4 (antibody, V domains shown)
VH: B1 VH with R65K, D89E
VL: B1 VL with A1G, R24K, S68I
B3: Anti-TREML1 Antibody Clone 28A9 (antibody, V domains shown)
VH: EVQLQQSGPELVKPGASVKMSCKASGYTFTNYVMHWVKQKPGQGLEWIGYFNPYNGHAKYSEKFTGKATLTSDRSSSTAYMELNSLTSEDSAVYYCTRDFNYYVGAMDYWGQGTSVTVSS
VL: DVVMTQSPLSLPVNLGDHASISCRSSQSLIHSNGNTYLHWYLQKPGQSPKLLVYQVSKRFSGVPDRFSGSGSGTDFTLKISRVEAEDLGVYFCSQSTHIWTFGGGTTLEIK
B4: Anti-TREML1 Antibody Clone 18D8 (antibody, V domains shown)
VH: EVQVQQSGPELVNPGASVRLSCKASGYIFTDYVIHWVRQKPGQGLEWIGYMNPYTDGPKYSDKIKDKAILTSDRSSNTVYMELRSLTSEDSAVYFCARDFNYYVGAMDFWGQGTSVTVSS
VL: DVVLTQTPLSLPVSLGDQASVSCRSSQSLLHSNGNTYLHWYLQKPGQSPKLLIYKVSNRFSGVPDRFTGSGSGTDFTLKISRVEAEDLGVYFCSQSTHIWTFGGGTKLEIK
B5: Anti-TREML1 Antibody Clone 27D3 (antibody, V domains shown)
VH: DVQLQQSGPELVKPGASVKMSCKASGYTFTEYVIHWVKQRPGQGLEWFGYFNPYTGGSKFNEKFKDKATLTSDRSSNTVYMELYSLTSEDSAVYYCARDFNYYVGAMDYWGQGTSVTVSS
VL: B4 VL with V3A, V21I, L30V, P45S, T68S, G73V, D75E, T97S, K107R
B6: Anti-TREML1 Antibody Clone 26A6 (antibody, V domains shown)
VH: EVKLVESGGGLVQPGGSRKLSCAASGFTFSDYGMAWVRQAPGKGPEWIAFISNLAYRIYYADTVTGRFTISRENAKNTLYLEMSSLRSEDSAIYYCVREDYGNNGAMDYWGQGTSVTVSS
VL: DVLMTQTPLSLPVSLGDQASISCRSSQSIVHSNGNTYLEWYLQKPGQSPKLLIYKVSNRFSGVPDRFSGSGSGTDFTLKISRVEAEDLGVYYCFQGSHVPPTFGGGTKLEIK

molecular target: T1, human TREML1 ECD (human); assay: solid phase binding assay (FIG. 4)

binding, binds:
B1
B2
B3
B4
B5
B6

molecular target: T2, mouse TREML1 ECD (mouse); assay: solid phase binding assay (FIG. 4)

binding, binds:
B1
B2
B3
B4
B5
B6
